This passage reports binding results from publication PMC10411459.

Amino acid sequences for entries named in this document (tags omitted). A change or cut given only in a name is not applied to a line headed by its entry.
UniProt P08670: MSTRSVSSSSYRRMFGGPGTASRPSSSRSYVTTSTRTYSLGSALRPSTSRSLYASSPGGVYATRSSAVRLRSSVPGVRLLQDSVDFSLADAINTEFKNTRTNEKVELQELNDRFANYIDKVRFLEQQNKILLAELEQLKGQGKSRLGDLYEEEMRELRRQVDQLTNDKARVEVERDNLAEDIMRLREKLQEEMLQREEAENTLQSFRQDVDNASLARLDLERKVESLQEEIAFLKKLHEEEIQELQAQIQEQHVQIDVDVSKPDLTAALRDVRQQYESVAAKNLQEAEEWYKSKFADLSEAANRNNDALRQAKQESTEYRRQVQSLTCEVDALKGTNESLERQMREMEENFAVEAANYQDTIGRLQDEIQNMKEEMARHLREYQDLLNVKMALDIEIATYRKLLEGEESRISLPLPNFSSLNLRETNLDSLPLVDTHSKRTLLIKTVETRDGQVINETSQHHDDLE
UniProt P62136: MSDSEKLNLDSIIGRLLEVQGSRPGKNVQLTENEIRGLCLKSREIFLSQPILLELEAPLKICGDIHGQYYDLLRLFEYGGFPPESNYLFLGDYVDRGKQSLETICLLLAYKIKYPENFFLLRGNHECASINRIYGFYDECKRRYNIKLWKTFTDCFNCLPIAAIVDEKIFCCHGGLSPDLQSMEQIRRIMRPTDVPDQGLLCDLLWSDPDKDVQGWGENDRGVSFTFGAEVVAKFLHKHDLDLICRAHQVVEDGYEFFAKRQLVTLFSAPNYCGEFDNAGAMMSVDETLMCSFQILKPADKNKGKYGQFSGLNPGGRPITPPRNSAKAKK

No constants are given. Whether binding was seen depends on the method and setting. For part of these data: Binding seen in cells or lysates may run through a third protein. Some results given as binding are weak or reduced against the parent protein; the word gives no strength.

The target of experiment [1] is T1, Golgi-protein 73 (human (endogenous in MHCC-97H)) (UniProt Q8NBJ4).
T1 sequence: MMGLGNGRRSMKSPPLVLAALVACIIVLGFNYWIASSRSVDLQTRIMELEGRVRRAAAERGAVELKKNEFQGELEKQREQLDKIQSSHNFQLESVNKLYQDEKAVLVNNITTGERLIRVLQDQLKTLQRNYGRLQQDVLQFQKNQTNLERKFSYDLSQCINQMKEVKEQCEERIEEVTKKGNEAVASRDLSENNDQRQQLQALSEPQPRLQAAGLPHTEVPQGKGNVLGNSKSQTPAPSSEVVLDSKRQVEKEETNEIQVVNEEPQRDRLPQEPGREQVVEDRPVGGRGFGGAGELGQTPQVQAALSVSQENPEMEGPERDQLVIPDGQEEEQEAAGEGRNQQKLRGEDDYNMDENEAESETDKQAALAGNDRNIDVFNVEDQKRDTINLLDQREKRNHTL
Nature of the experiment: co-IP; lysates of HCC cells (MHCC-97H, Hep3B), immunoblotting; GP73 knocked down or overexpressed (Fig. 4C), vimentin S56 mutants transfected (Fig. 4D), Clomipramine for 24 h (Fig. 5G).

The target in experiment [2] is vimentin (human (endogenous in MHCC-97H)) (UniProt P08670). Description: native gel or EMSA; Native-PAGE and immunoblotting of vimentin in Hep3B and MHCC-97H cells. For orientation: A gel shift assay detects complexes by their altered migration in electrophoresis.
The target is the same in experiment [3]. Nature of the experiment: SEC; whole cell lysates of MHCC-97H and Hep3B over Superdex 200 in cold PBS, vimentin monomers, tetramers and polymers detected by immunoblotting, GP73 knocked down or overexpressed. On the technique in general: In gel filtration, larger molecules generally elute earlier.
Experiment [4] deals with Serine/Threonine-protein phosphatase PP1-alpha (human (endogenous in MHCC-97H)) (UniProt P62136). Description: co-IP; lysates of HCC cells (MHCC-97H, Hep3B), immunoblotting; GP73 knocked down or overexpressed (Fig. 4C), vimentin S56 mutants transfected (Fig. 4D), Clomipramine for 24 h (Fig. 5G). Background: In western blotting, separated proteins are transferred to a membrane and probed.

“vimentin S56A mutant (from UniProt P08670 1-466)”: the binding entry in experiment [1] is “binds”.
For vimentin (from UniProt P08670 1-466), the binding result in experiment [2], in experiment [3], in experiment [1] and in experiment [4] was “binds” each time.

B1: Golgi-protein 73 (protein, UniProt Q8NBJ4 1-401)
chain: T1 sequence
Regarding B1, the binding result in experiment [4] is “binds”.
